The list shows a part of the results.
Each sequence was assayed against OsWRKY34 (Oryza sativa, UniProt Q0JBA9 1-250) (assay: protein-binding microarray (RPBM); PBS, 2% BSA, 51.3 ng/ul salmon testes DNA, 50 uM zinc acetate, 200 nM TF, 25 C, 1 h; high values mean tight binding). Conditions: protein: recombinant; tags: N-terminal polyhistidine and DsRed monomer fusion (pET32a); label: CyDye5-dUTP incorporated in the synthesized complementary strand; 3' TTTTT single-stranded linker to array surface; dsDNA, one strand shown.
How it was run: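 Binding signal is reported as fluorescence intensity per feature (arbitrary units) from an Axon 4000B scanner. Incubation used 200 nM of each Ni–NTA-purified, N-terminally polyhistidine- and DsRed-fused transcription factor from E. coli BL21-CodonPlus on a double-stranded custom Agilent array for 1 h at 25 °C, with 50 µM zinc acetate in the buffer, followed by washing.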

Sequences of proteins named here, by UniProt entry; tags and fusion partners are left off.
UniProt Q0JBA9, entry or part of it: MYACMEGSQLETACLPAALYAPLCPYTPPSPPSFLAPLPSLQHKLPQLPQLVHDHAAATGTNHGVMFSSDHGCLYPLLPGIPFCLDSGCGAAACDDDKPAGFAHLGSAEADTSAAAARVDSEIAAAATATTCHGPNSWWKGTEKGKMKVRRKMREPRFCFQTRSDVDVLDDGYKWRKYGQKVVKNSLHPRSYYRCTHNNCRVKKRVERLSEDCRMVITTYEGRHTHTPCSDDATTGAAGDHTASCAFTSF

| Sequence | binding signal |
| --- | --- |
| AGTATGTTCTCTTTTCTCATGGCGTTTGCAACGTTGTCATCGGAGTCACCTAGTGCAG | 14800 fluorescence intensity (a.u.) |
| CGGGCTCTGGTTTTACCGAATAAATGCTCTGGGCCTAATACGGAGTCACCTAGTGCAG | 8020 fluorescence intensity (a.u.) |
| CGGAGAGAGTACCATACTTCCATCCCTGTATCTACAGTAACGGAGTCACCTAGTGCAG | 8600 fluorescence intensity (a.u.) |
| ACCCACGTATAATTTCATCATATCTAGACATATGTACTATCGGAGTCACCTAGTGCAG | 9010 fluorescence intensity (a.u.) |
| AATCACAACTTTGCTTTCATCCACGTCGACAACATATACACGGAGTCACCTAGTGCAG | 8420 fluorescence intensity (a.u.) |
| ATCATTGCCATAAAGCATTATTGTCATTCTTTGATGTTGACGGAGTCACCTAGTGCAG | 8340 fluorescence intensity (a.u.) |
| GTCGCCCGCCCGTGTCCACCACCCACTGCCGGTCATCCACCGGAGTCACCTAGTGCAG | 8330 fluorescence intensity (a.u.) |
| CTGCGTTTCTATTGGTATTTGACTCTTTGTCTCTTCGGGTCGGAGTCACCTAGTGCAG | 10300 fluorescence intensity (a.u.) |
| GATGGGCCCGTTTCTGTCTCCAATTCCAGCCCGTCTCTTACGGAGTCACCTAGTGCAG | 8470 fluorescence intensity (a.u.) |
| CCCTTCATGTGCAAGCCACTGCCTCCACCCTCACACTGGACGGAGTCACCTAGTGCAG | 9220 fluorescence intensity (a.u.) |
| GATTGTTTGGTAGCACACTGCCTTGGTTGGGTTGATGATCCGGAGTCACCTAGTGCAG | 11100 fluorescence intensity (a.u.) |
| GACTATAAACATCATAGGGTGATAGGGGTCGTGGTAGGTGCGGAGTCACCTAGTGCAG | 10300 fluorescence intensity (a.u.) |
| ATCGCCATTCCACCCGCTGCCGCCTCCGCCGCCGCCGTAGCGGAGTCACCTAGTGCAG | 11000 fluorescence intensity (a.u.) |
| TTCAACCACACACATGTCCACACACAGCCCAATAAAACTCCGGAGTCACCTAGTGCAG | 9480 fluorescence intensity (a.u.) |
| CAGTTGCCGCTGATGCAATTCATCGCCCTCCTCTTGTTAGCGGAGTCACCTAGTGCAG | 8030 fluorescence intensity (a.u.) |
| TATATATATATATATATATAGATTTATTGACATCTATATGCGGAGTCACCTAGTGCAG | 9230 fluorescence intensity (a.u.) |
| TTCTCTCTGCCCGTGCCAATCTTCCTTTCCCACATCCTCCCGGAGTCACCTAGTGCAG | 10300 fluorescence intensity (a.u.) |
| GCCCGCGCGAAATGACGCTACTACCCTCGTTGCTCTTATCCGGAGTCACCTAGTGCAG | 9540 fluorescence intensity (a.u.) |
| TATTCACCTATGTTTTTGTTAGTCTATTTTATTTCCCTAGCGGAGTCACCTAGTGCAG | 8120 fluorescence intensity (a.u.) |
| GCTAGTACTACCTTCATATTTAAATACACGACTTTATTCTCGGAGTCACCTAGTGCAG | 9250 fluorescence intensity (a.u.) |
| CTCCTGTGTTCATATGCCTCACCAAGCTGCGAGTTGCAGACGGAGTCACCTAGTGCAG | 10500 fluorescence intensity (a.u.) |
| AATTAATTTTATGTTATAGATGTTGCTAATTTTTTCTTTACGGAGTCACCTAGTGCAG | 8090 fluorescence intensity (a.u.) |
| TTTTCTCTCCTGTTTTGGGAGGGTTTTCCACGTTAAATCTCGGAGTCACCTAGTGCAG | 8230 fluorescence intensity (a.u.) |
| CATCCGGATCCAAAGCCTCGTTTGACCGTGTCTTACCTACCGGAGTCACCTAGTGCAG | 9730 fluorescence intensity (a.u.) |
| TTTTATGACTATTTTTATCCTTACATGTAAAGATGTACGTCGGAGTCACCTAGTGCAG | 8260 fluorescence intensity (a.u.) |
| ACCATCTCTTCGCAGATCCACCTGCTCCGCCGCCGCCGCCCGGAGTCACCTAGTGCAG | 9020 fluorescence intensity (a.u.) |
| ATATACTCCTACCGTTTTTAATACATGACACCGTTAACTTCGGAGTCACCTAGTGCAG | 8800 fluorescence intensity (a.u.) |

| Sequence | binding signal |
| --- | --- |
| GTTTTCTTGTACAGTAGTGTGTGCGCACTTATGTTGACTACGGAGTCACCTAGTGCAG | 10700 fluorescence intensity (a.u.) |
| TCATGGGCCAATGGCCATAATGAACGCGTTGACCTAAGTCCGGAGTCACCTAGTGCAG | 9140 fluorescence intensity (a.u.) |
| CAGCTTTTTCTTGTGTGTTGCGCTTTAGCCGGGCGATAGACGGAGTCACCTAGTGCAG | 9850 fluorescence intensity (a.u.) |
| GACTACCTACCACCCTTTCTTAGGACAGGTTAACTGGACACGGAGTCACCTAGTGCAG | 8590 fluorescence intensity (a.u.) |
| TTCAAATTTTCCCTTAGTTTTCATCTCCTTTGAAATTCCACGGAGTCACCTAGTGCAG | 9010 fluorescence intensity (a.u.) |
| TCGTTCCTTCCTGTTGTTTCCTTTTCTTTTCCTTTATTTTCGGAGTCACCTAGTGCAG | 8070 fluorescence intensity (a.u.) |
| CAGCCGATGCACAGTTCGTTTTGGCAAGATTCAATTTCCTCGGAGTCACCTAGTGCAG | 8430 fluorescence intensity (a.u.) |
| CAGCATTATCTTCTCAGTCTTGTTCTCCCTTCACAGTTTCCGGAGTCACCTAGTGCAG | 8760 fluorescence intensity (a.u.) |
| CTCCACCCCATCCGCGCCGCTCGCTGTTTTCCTCCACCGCCGGAGTCACCTAGTGCAG | 13300 fluorescence intensity (a.u.) |
| GAAGAAGCGGTGTGGTTCACTTTTGCAAATTCCACCCTGACGGAGTCACCTAGTGCAG | 8340 fluorescence intensity (a.u.) |
| AGCAACTTTTTCCATGTCTGTCACTGTCACTAGAAGAAGCCGGAGTCACCTAGTGCAG | 8790 fluorescence intensity (a.u.) |
| ACAGGGGCAGGGGTCATGTGGTGGAGGTAATCAATTAATCCGGAGTCACCTAGTGCAG | 9260 fluorescence intensity (a.u.) |
| ATAATTCGTCCCCAAGTTTCCAGCCCAACCCAAATCGCGGCGGAGTCACCTAGTGCAG | 8260 fluorescence intensity (a.u.) |
| GGAATTAGGGTTTAGGGTTTGCTTTATCGTGCAAACACCTCGGAGTCACCTAGTGCAG | 9070 fluorescence intensity (a.u.) |
| GCTTTCTAGTTTTATTTTGACACTTCCCTTAACTAGTGTACGGAGTCACCTAGTGCAG | 8350 fluorescence intensity (a.u.) |
| GTGAGTGCGCATCCGCCCCTGATTCCCAACTTGCGCCTGCCGGAGTCACCTAGTGCAG | 8940 fluorescence intensity (a.u.) |
| CCCCTCACCTTCTCCGGCGATCGCCGCCGCGTCCGTACACCGGAGTCACCTAGTGCAG | 8020 fluorescence intensity (a.u.) |
| GGAGGGTCTGTTTTCTTGTGTGCGAGCCTTGCTAGTTGCTCGGAGTCACCTAGTGCAG | 16500 fluorescence intensity (a.u.) |
| CTAAGTACCCTGACATTACCAACGTTCATCTCCACGGCACCGGAGTCACCTAGTGCAG | 10000 fluorescence intensity (a.u.) |
| CTCAAACGCGCGCGCGAGAGGAGGGGAGGGGTTTGGTTTGCGGAGTCACCTAGTGCAG | 12000 fluorescence intensity (a.u.) |
| CAGACCAGGCATCCCGACACTACACGCAGACTCTCGACTTCGGAGTCACCTAGTGCAG | 8580 fluorescence intensity (a.u.) |
| ATTACAGCTCAAGATGTGTCTCATTGCTCTCTGTGTTTCTCGGAGTCACCTAGTGCAG | 8630 fluorescence intensity (a.u.) |
| TGAGAAGCCTCCATTGCCTCGTTTTTCTTTGATCTTCTCACGGAGTCACCTAGTGCAG | 9410 fluorescence intensity (a.u.) |
| GTTTGGTTAATACGTGAGTTGTGGCAGCCATACTTTTTGCCGGAGTCACCTAGTGCAG | 8470 fluorescence intensity (a.u.) |
| TCTCTCCTCCTCATACTACATAGTACTACCCATATATATTCGGAGTCACCTAGTGCAG | 9020 fluorescence intensity (a.u.) |
| TTGCTTCGACGAAACTTCGACGACGCGTTCTCACCTTCTTCGGAGTCACCTAGTGCAG | 8510 fluorescence intensity (a.u.) |
| AAACACACACATGTACACACACACACTCTCTCTCTCTCTCCGGAGTCACCTAGTGCAG | 8970 fluorescence intensity (a.u.) |

Looked up above:
GGAATTAGGGTTTAGGGTTTGCTTTATCGTGCAAACACCTCGGAGTCACCTAGTGCAG | binding signal: 9070 fluorescence intensity (a.u.)
GTGAGTGCGCATCCGCCCCTGATTCCCAACTTGCGCCTGCCGGAGTCACCTAGTGCAG | binding signal: 8940 fluorescence intensity (a.u.)

— article PMC7819943, “Rice protein-binding microarrays: a tool to detect cis-acting elements near promoter regions in rice”
